Source: paper PMC6362000
Results are given in words; binding and its absence hold for the method and conditions named. Binding seen in cells or lysates may run through a third protein. Here binding means that the protein was enriched with, or labelled near, the bait; the list need not be complete. Blank lines part the entries; values can stand above or below the binder they belong to.

Chains of the proteins cited; added tags and fusions are not shown. Residues count along the entry.
UniProt P31431, residues 19-198: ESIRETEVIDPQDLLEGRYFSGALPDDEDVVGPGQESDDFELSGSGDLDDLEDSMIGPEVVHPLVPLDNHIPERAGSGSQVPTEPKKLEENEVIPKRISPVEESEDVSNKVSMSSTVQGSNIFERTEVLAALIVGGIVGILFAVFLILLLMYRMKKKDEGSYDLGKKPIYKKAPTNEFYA

Tests used:
[1] = biological target: GFP-tagged WT syndecan-4 (human) (UniProt P31431); test: affinity purification with mass spectrometry; whole cell extract (2 mg) of the stable transfectant of GFP-tagged SDC4, anti-GFP magnetic beads (µMACS), detergent-free washes, on-bead trypsin digestion, LC-MS/MS
[2] = biological target: GFP-tagged syndecan-4 (WT SDC4) (human) (UniProt P31431); test: affinity purification with mass spectrometry; whole cell extract of stable GFP-tagged SDC4 transfectant; anti-GFP magnetic beads (µMACS GFP Isolation Kit), on-bead trypsin digestion, LC-MS/MS

binding [1]: binds
binding [2]: binds
B1: flotillin 2 (protein, UniProt Q14254 1-428)
chain: MGNCHTVGPNEALVVSGGCCGSDYKQYVFGGWAWAWWCISDTQRISLEIMTLQPRCEDVETAEGVALTVTGVAQVKIMTEKELLAVACEQFLGKNVQDIKNVVLQTLEGHLRSILGTLTVEQIYQDRDQFAKLVREVAAPDVGRMGIEILSFTIKDVYDKVDYLSSLGKTQTAVVQRDADIGVAEAERDAGIREAECKKEMLDVKFMADTKIADSKRAFELQKSAFSEEVNIKTAEAQLAYELQGAREQQKIRQEEIEIEVVQRKKQIAVEAQEILRTDKELIATVRRPAEAEAHRIQQIAEGEKVKQVLLAQAEAEKIRKIGEAEAAVIEAMGKAEAERMKLKAEAYQKYGDAAKMALVLEALPQIAAKIAAPLTKVDEIVVLSGDNSKVTSEVNRLLAELPASVHALTGVDLSKIPLIKKATGVQV

binding [1]: binds
binding [2]: binds
B2: flotillin 1 (protein, UniProt O75955 1-427)
chain: MFFTCGPNEAMVVSGFCRSPPVMVAGGRVFVLPCIQQIQRISLNTLTLNVKSEKVYTRHGVPISVTGIAQVKIQGQNKEMLAAACQMFLGKTEAEIAHIALETLEGHQRAIMAHMTVEEIYKDRQKFSEQVFKVASSDLVNMGISVVSYTLKDIHDDQDYLHSLGKARTAQVQKDARIGEAEAKRDAGIREAKAKQEKVSAQYLSEIEMAKAQRDYELKKAAYDIEVNTRRAQADLAYQLQVAKTKQQIEEQRVQVQVVERAQQVAVQEQEIARREKELEARVRKPAEAERYKLERLAEAEKSQLIMQAEAEAASVRMRGEAEAFAIGARARAEAEQMAKKAEAFQLYQEAAQLDMLLEKLPQVAEEISGPLTSANKITLVSSGSGTMGAAKVTGEVLDILTRLPESVERLTGVSISQVNHKPLRTA
